# Primary screen of a compound library

Protein sequences, listed by entry. Tags and fused reporters are not part of them. Residues count along the entry.
UniProt Q8IDJ8, 1-583: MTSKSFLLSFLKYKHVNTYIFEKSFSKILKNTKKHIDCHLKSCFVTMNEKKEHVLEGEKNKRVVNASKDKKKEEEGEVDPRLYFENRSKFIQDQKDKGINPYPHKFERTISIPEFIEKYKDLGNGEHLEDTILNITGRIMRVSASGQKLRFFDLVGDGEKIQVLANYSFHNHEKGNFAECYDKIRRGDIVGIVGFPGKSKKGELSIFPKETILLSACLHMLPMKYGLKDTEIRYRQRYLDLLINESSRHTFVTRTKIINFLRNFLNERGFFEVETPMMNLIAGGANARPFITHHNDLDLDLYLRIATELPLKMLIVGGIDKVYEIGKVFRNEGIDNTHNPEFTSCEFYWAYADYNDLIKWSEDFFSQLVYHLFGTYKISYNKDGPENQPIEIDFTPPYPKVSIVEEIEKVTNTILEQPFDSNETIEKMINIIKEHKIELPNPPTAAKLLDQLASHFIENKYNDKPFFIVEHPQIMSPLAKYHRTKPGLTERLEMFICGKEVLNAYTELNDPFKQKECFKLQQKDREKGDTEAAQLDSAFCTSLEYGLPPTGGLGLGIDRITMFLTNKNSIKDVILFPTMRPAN
UniProt I6X8D2, whole entry: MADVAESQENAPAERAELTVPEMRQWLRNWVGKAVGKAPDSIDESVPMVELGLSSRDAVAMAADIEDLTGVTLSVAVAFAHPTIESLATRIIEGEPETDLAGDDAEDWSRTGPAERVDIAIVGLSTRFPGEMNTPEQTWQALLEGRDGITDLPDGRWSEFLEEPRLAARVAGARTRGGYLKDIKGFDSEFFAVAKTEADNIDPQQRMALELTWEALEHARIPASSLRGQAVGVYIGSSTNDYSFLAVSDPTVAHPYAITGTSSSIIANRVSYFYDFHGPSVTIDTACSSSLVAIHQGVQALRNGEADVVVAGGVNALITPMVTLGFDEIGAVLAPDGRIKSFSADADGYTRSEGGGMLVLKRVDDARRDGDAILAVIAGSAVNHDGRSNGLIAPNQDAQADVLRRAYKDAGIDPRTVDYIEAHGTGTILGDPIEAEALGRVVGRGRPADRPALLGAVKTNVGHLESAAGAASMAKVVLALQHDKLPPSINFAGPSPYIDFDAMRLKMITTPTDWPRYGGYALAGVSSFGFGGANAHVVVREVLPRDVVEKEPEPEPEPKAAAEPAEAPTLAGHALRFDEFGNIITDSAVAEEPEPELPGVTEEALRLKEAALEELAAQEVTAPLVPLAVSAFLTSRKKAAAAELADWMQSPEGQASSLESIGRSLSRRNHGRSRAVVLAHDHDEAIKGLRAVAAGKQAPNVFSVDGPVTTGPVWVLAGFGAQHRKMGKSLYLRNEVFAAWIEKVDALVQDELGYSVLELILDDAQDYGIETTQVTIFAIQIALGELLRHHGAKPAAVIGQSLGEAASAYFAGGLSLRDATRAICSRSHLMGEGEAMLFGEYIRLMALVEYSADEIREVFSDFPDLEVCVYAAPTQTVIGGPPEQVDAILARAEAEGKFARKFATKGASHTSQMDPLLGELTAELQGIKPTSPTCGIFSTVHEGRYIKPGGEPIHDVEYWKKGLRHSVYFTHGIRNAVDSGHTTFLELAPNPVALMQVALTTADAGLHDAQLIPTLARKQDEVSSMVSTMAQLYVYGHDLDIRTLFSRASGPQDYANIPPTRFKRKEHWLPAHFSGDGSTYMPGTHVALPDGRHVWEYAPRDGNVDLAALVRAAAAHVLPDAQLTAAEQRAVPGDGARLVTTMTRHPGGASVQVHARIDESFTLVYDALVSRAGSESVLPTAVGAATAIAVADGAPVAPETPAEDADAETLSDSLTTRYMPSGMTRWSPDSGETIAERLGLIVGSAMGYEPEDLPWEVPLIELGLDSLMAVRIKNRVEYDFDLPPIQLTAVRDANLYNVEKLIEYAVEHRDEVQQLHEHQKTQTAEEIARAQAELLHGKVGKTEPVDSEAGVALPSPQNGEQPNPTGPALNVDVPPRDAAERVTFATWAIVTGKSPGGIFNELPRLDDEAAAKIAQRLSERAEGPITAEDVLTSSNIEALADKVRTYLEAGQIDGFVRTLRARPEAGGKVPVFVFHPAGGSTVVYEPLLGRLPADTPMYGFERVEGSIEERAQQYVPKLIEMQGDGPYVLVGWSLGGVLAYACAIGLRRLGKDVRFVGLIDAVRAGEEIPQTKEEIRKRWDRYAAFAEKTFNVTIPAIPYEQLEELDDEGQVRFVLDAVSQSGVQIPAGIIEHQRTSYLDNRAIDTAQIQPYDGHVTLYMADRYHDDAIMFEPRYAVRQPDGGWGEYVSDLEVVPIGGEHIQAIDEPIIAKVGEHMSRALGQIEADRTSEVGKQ
UniProt P9WPC5, whole entry: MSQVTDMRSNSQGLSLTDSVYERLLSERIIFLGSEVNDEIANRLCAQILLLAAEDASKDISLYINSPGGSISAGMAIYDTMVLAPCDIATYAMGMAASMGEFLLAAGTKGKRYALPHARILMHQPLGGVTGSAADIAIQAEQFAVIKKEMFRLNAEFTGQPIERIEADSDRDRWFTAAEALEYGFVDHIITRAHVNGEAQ
UniProt P9WPC3, whole entry partner: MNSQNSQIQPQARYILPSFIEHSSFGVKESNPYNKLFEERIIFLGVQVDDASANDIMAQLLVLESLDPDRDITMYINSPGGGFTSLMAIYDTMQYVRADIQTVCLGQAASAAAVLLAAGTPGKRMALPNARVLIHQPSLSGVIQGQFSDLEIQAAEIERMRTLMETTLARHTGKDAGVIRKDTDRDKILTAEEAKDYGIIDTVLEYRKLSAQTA

Data taken from ChEMBL document CHEMBL3988442, “University of Dundee, Small-Polar-MMV Screening Library” (2021).

PfKRS1: 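Enzyme assay of the cytosolic lysyl-tRNA synthetase in 384-well plates, read by luminescence. Target: Lysine-tRNA ligase, Plasmodium falciparum 3D7 (UniProt Q8IDJ8). Tested at 30 µM. Direction is inferred from only a few compounds that gave an IC50; most scored high, so higher reads as stronger inhibition. About 69,000 compounds were tested under these conditions; 0.071% (about 49) showed 50% or more at least once.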
Pks13 thioesterase: 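Enzyme assay of the thioesterase domain of polyketide synthase 13; the read-out is not stated. Target: Polyketide synthase Pks13, Mycobacterium tuberculosis (UniProt I6X8D2). Compounds at 30 µM. The record gives no direction; the compounds picked for IC50 retests had high values, so higher reads as stronger inhibition. Of about 67,000 compounds tested this way, about 300 (0.46%) reached 50% or more in at least one test.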
ClpP1P2: 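Protease assay of ClpP1P2, read by the AMC dye that it sets free. Target: ClpP1P2, Mycobacterium tuberculosis (UniProt P9WPC5 and UniProt P9WPC3). Tested at 50 µM. Higher reads as stronger inhibition, judged from the few compounds that gave an IC50. Most other retested compounds had strongly negative values. About 69,000 compounds were tested under these conditions; 0.015% (about 10) showed 50% or more at least once.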

The filed quantity is “Percent Effect” (%). How 0% and 100% were set is not recorded. Most values in the screen are low, and negative values occur. Compounds were drawn at random from those tested, without regard to their results. A dash means the value is not listed here; it may have been measured.

* COc1ccc(CN2CCC(C(N)=O)CC2)cc1SC(F)(F)F | PfKRS1: 4.196%; Pks13 thioesterase: -11.45%; ClpP1P2: -15.63%
* Cc1nc(CN2CCO[C@H]3CN(C(=O)Cc4cccs4)C[C@H]32)cs1 | PfKRS1: 2.305%; Pks13 thioesterase: -32.42%; ClpP1P2: -0.7869%
* CC(C)CN1CCN(C(=O)Nc2cc(C(F)(F)F)c[nH]c2=O)CC1 | PfKRS1: 5.066%; Pks13 thioesterase: 5.125%; ClpP1P2: -7.028%
* CCC(C)(C)n1nnnc1C(c1cccs1)N1CCc2ccccc21 (centres undefined) | PfKRS1: 1.844%; ClpP1P2: -24.21%
* COCCN1CCc2nc(SCc3ccc(F)cc3)[nH]c(=O)c2C1 | PfKRS1: 2.323%; Pks13 thioesterase: -25.78%; ClpP1P2: -12.78%
* CCc1cnc(NCC(C)Oc2cccnc2)nc1 (centres undefined) | PfKRS1: 3.848%; Pks13 thioesterase: -16.84%; ClpP1P2: 10.39%
* COCCC(C)NC(=O)Nc1ccc(N2CCOC2=O)c(OC)c1 (centres undefined) | PfKRS1: 1.233%; Pks13 thioesterase: -34.52%; ClpP1P2: 2.064%
* Cc1nc(CNCC2CN(C3CC3)CCO2)cs1 (centres undefined) | PfKRS1: -2.393%; Pks13 thioesterase: -20.34%; ClpP1P2: 8.908%
* O=C(C1CCOC1)N1CCN(Cc2ccc3c(c2)CCO3)CC1 (centres undefined) | PfKRS1: 2.487%; Pks13 thioesterase: -7.151%; ClpP1P2: 15.85%
* COCCCN(Cc1ccncc1)c1cc(C)ncn1 | PfKRS1: 0.8713%; Pks13 thioesterase: -12.49%; ClpP1P2: 14.5%
* Cc1cnn(CCNCC(=O)N2CCN(c3ccccn3)CC2)c1 | PfKRS1: 7.141%; Pks13 thioesterase: 5.385%; ClpP1P2: 11.48%
* CC(C)c1cc(C(=O)N2CCCN(CCCc3ccccc3)CC2)[nH]n1 | PfKRS1: -0.1257%; Pks13 thioesterase: -28.23%; ClpP1P2: 0.8206%
* Cc1cc(N2CCN(C(=O)[C@@H]3C[C@@H]4C=C[C@H]3C4)CC2)nc2ccccc12 | PfKRS1: 3.301%; Pks13 thioesterase: -8.489%; ClpP1P2: -19.28%
* CCOC(=O)c1cnn(C2CCN(C(=O)CCC(C)C)CC2)c1N | PfKRS1: 2.902%; Pks13 thioesterase: -7.116%; ClpP1P2: 0.552%
* c1csc(-c2noc(CCCNC3CCc4ncnn4C3)n2)c1 (centres undefined) | PfKRS1: -1.896%; Pks13 thioesterase: -32.95%; ClpP1P2: -1.199%
* Cc1ccc(OCC(O)COC2CCOCC2)c(Cl)c1 (centres undefined) | PfKRS1: 1.449%; Pks13 thioesterase: -3.644%; ClpP1P2: 5.694%
* O=C(c1ncn2c1CNS(=O)(=O)c1ccccc1-2)N1CCOCC1 | PfKRS1: 2.245%; Pks13 thioesterase: -5.228%; ClpP1P2: -4.922%
* CN(C)CCN1CC[C@H]2[C@@H]1CCN2Cc1ccc2c(c1)OCO2 | PfKRS1: 4.405%; Pks13 thioesterase: -30.52%; ClpP1P2: -2.376%
* CC(C)N1CCC(N2CCC(C(=O)N(C)C)CC2)CC1 | PfKRS1: 1.606%; Pks13 thioesterase: 13.72%; ClpP1P2: -9.237%
* COc1ccc(C(C)CCNC2CCN(c3ccccn3)CC2)cc1 (centres undefined) | PfKRS1: 8.394%; Pks13 thioesterase: -6.154%; ClpP1P2: -3.513%
* CN(C)c1ncnc2c1CCN(S(=O)(=O)c1ccccc1C(F)(F)F)C2 | PfKRS1: 10.85%; Pks13 thioesterase: -1.292%; ClpP1P2: 11.69%
* Nc1nccnc1C(=O)NC1CCN(Cc2ccccc2)C1 (centres undefined) | PfKRS1: 3.936%; Pks13 thioesterase: 17.58%; ClpP1P2: -68.05%
* Cc1noc(CN(Cc2ccc3c(c2)OCCO3)Cc2ccco2)n1 | PfKRS1: -0.5105%; Pks13 thioesterase: -14.78%; ClpP1P2: -2.362%
* O=C1NC2(CCN(Cc3ccc(F)cc3)CC2)CC1c1ccncc1 (centres undefined) | PfKRS1: 1.598%; Pks13 thioesterase: -14.73%; ClpP1P2: 14.64%
* CCc1ncnc2c1CCN(C(=O)Cc1ccccn1)CC2 | PfKRS1: 8.152%; Pks13 thioesterase: -28.36%; ClpP1P2: -2.045%
* Cc1ncc(C(=O)NC2CCN(CCOc3ccc(Br)cc3)CC2)s1 | PfKRS1: 0.3172%; Pks13 thioesterase: -17.67%; ClpP1P2: -1.766%
* CC(C)(C)c1cccc(OCC(=O)NS(=O)(=O)c2cccnc2)c1 | PfKRS1: -0.5737%; Pks13 thioesterase: -22.95%; ClpP1P2: -16.82%
* CC(C)(CN)NS(=O)(=O)c1c(F)cccc1F | PfKRS1: 6.846%; Pks13 thioesterase: 5.925%; ClpP1P2: -6.063%
* CCOCC1CN(Cc2csc(C)n2)Cc2nccn2C1 (centres undefined) | PfKRS1: 4.582%; Pks13 thioesterase: 1.074%; ClpP1P2: 6.101%
* CCC(=O)Nc1ccc(C(C)Nc2nc3c(cnn3C)c(=O)[nH]2)cc1 (centres undefined) | PfKRS1: 9.808%; Pks13 thioesterase: -20.84%; ClpP1P2: 0.3007%
* N#Cc1ccnc(N2CCC(c3nccn3Cc3cscn3)CC2)c1 | PfKRS1: -10.68%; Pks13 thioesterase: -7.324%; ClpP1P2: -87.95%
* COc1c(C2CCCN2C(=O)c2cnn(C)c2C2CC2)c(C)nn1C (centres undefined) | PfKRS1: -4.637%; Pks13 thioesterase: -0.3067%; ClpP1P2: -10.06%
* Cc1n[nH]c(C)c1CNc1nc(-c2ccco2)nc2c1CCNCC2 | PfKRS1: -6.406%; Pks13 thioesterase: 5.959%; ClpP1P2: -2.321%
* COc1ccc(OC)c(NC(=O)N2CCCC2c2ccco2)c1 (centres undefined) | PfKRS1: -2.116%; ClpP1P2: 2.741%
* CC1CN(C)CCN1CC(=O)NCCOc1cccc(F)c1 (centres undefined) | PfKRS1: 0.6474%; Pks13 thioesterase: -1.553%; ClpP1P2: -35.39%
* CNc1snc(C)c1C(=O)N1CCCC(n2cccn2)C1 (centres undefined) | PfKRS1: 1.482%; Pks13 thioesterase: -10.29%; ClpP1P2: -22.91%

For reference, 3 entries once more:

Compound,PfKRS1,Pks13 thioesterase,ClpP1P2
CC(C)c1cc(C(=O)N2CCCN(CCCc3ccccc3)CC2)[nH]n1,-0.1257,-28.23,0.8206
CCC(C)(C)n1nnnc1C(c1cccs1)N1CCc2ccccc21 (centres undefined),1.844,-,-24.21
Cc1noc(CN(Cc2ccc3c(c2)OCCO3)Cc2ccco2)n1,-0.5105,-14.78,-2.362